Positions count from the first letter of the chain named. These are yes or no findings as the source states them, for the method shown. Some results given as binding are weak or reduced against the parent protein; the word gives no strength. Each block holds one binder with its values, some of them ahead of it.
Legend:
[1] = biological target: recombinant human DLL4, C-terminally His-tagged extracellular domain (R&D Systems) (human) (UniProt Q9NR61); experiment: binding ELISA, coated rhDLL4 [binding to rhDLL4]
[2] = biological target: recombinant human DLL4, C-terminally His-tagged extracellular domain (R&D Systems) (human) (UniProt Q9NR61); experiment: AlphaScreen competition: biotinylated hDLL4 vs hNotch1/Fc
[3] = biological target: full length mouse DLL4 on overexpressing CHO or HEK293 cells (mouse) (UniProt Q9JI71); experiment: FMAT competition: labelled hNotch1/Fc on CHO-mDLL4 cells
[4] = biological target: recombinant human DLL4, C-terminally His-tagged extracellular domain (R&D Systems) (human) (UniProt Q9NR61); experiment: competition ELISA: biotinylated hDLL4 + binder, binding to coated hNotch1/Fc

Sequences of proteins named here, by UniProt entry; tags and fusion partners are left off. A change or cut given only in a name is not applied to a line headed by its entry. Residues count along the entry.
UniProt Q9NR61: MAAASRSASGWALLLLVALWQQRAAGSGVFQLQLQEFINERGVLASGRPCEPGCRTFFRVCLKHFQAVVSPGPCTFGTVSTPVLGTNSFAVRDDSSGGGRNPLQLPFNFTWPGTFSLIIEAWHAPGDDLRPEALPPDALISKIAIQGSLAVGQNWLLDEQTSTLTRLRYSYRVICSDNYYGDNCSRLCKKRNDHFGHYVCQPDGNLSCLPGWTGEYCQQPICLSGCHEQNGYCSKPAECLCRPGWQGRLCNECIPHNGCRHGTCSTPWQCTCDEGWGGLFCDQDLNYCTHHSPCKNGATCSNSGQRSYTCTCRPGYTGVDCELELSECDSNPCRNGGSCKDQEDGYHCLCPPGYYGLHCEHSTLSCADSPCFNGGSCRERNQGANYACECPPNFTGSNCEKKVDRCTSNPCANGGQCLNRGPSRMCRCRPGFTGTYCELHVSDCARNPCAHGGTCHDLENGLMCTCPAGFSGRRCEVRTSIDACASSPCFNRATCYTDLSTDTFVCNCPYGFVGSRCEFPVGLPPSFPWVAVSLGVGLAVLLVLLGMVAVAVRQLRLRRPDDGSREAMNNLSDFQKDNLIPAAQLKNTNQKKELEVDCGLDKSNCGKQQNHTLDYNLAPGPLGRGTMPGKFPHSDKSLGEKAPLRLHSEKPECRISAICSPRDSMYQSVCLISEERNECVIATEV
UniProt Q9JI71, residues 27-686: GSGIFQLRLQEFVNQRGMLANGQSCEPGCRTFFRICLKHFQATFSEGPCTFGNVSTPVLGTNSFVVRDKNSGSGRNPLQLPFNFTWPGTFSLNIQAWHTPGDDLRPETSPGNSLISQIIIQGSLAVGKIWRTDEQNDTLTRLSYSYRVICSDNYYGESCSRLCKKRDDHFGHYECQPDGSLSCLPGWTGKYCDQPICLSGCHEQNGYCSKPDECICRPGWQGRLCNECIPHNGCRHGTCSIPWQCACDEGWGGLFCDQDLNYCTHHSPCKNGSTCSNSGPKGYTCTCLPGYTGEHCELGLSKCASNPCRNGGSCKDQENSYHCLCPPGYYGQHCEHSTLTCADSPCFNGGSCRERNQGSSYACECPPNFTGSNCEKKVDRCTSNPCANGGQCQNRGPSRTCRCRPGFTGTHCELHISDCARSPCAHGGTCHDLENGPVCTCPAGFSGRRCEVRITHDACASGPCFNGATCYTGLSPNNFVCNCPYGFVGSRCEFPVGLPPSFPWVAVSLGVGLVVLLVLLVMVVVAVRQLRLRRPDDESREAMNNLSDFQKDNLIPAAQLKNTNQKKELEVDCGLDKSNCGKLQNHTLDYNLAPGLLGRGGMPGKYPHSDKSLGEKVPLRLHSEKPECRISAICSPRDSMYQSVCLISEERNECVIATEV

binding [3]: binds
B3: DLLBII104B05 (VHH)
VHH: EVQLVESGGGSVQAGGSLRLSCAASGSISRIDVMAWYRQAPGKERELVASISSGGSTNYADSVKGRFTISREYFKNMMYLQMNSLKFEDTAVYYCNADSRRGGVGNFFRSWGQGTQVTVSS
notes: tested as periplasmic extract; also called DLLBII104B5; not shown: C-terminal c-myc tag and His6 tag

binding [1]: binds
binding [2]: binds
binding [4]: binds
B4: DLLBII62C11 (VHH)
VHH: EVQLMESGGGLVQPGGSLRLSCVAAGFTFSNYYMSWVRQAPGKGLEWVSVISPDGSNTYYADTVKGRFTISRGNAKNTLFLQMTGLKSEDAAVYYCARGSGSWGVHGQGTQVTVSS
notes: not shown: C-terminal c-myc tag and His6 tag

binding [3]: binds
B5: DLLBII80E08 (VHH)
VHH: EVQLVESGGGLVQAGGSLTLSCAASGGTFTTYAMGWFRQAPGKEREFVAAVSRFGVSWDYADSVKGRFTISRDNTANTLKLRMNSLKADDTAVYYCAAGGRSFLPFVPAYWGQGTQVTVSS
notes: tested as periplasmic extract; also called DLLBII80E8; not shown: C-terminal c-myc tag and His6 tag

binding [2]: binds
B6: 83G04 (VHH)
VHH: EVQLVESGGGLVKPGGSLRLSCAASGRTLYIMGWYRQAPGKEREFVAGISRYGDITYAADSVKGRFTISRDSVKNTVYLRMNSLKPDDTAVYYCAANGGYCSGYGCYEDSGQYDYWGQGTQVTVSS
notes: also called DLLBII83G04

binding [3]: binds
B9: DLLBII104C04 (VHH)
VHH: EVQLVESGGGLVQAGGSLRLSCAAAGSTFSSYVMGWYRQAPGKQRELVAHISTRGITYYADSVKGRFTISRDNAKNTMYLQMNSLKPEDTAVYYCNTRRNFLSNYWGQGTQVTVSS
notes: tested as periplasmic extract; also called DLLBII104C4; not shown: C-terminal c-myc tag and His6 tag

binding [1]: binds
binding [2]: binds
binding [4]: binds
B13: DLLBII56H08 (VHH, not shown: small tags and cut ends)
VHH: EVQLVESGGGLVQPGGSLRLSCAASGFTFDDYAIGWFRQAPGKEPEEISCISSSGGITYYADSVKGRFTISRDNAKNTVYLQMNSLKPEDTAVYYCATPGIAACRGIHYTGQGTQVTVSS

binding [1]: binds
binding [2]: binds
binding [4]: binds
B14: DLLBII57C11 (VHH, not shown: small tags and cut ends)
VHH: B13 VHH with A23T, E47G, G56S, Y60D, T110W

binding [3]: binds
B17: DLLBII104A03 (VHH)
VHH: EVQLVESGGGLVQAGGSLRLSCAASGDIPRIAAMGWYRQAPGKQRELVATVSNAATTRYADSAKGRFTISRDNAKTVSLQMDNLKPEDTGVYYCYSLATTVTPSWVNYWGQGTQVTVSS
notes: tested as periplasmic extract; also called DLLBII104A3; not shown: C-terminal c-myc tag and His6 tag

binding [3]: binds
B18: DLLBII102F08 (VHH)
VHH: EVQLVESGGGLVQTGDSLRLSCAASGSTFSNYRMGWFRQGPGKEREFVAAIGRNGQNTYYTDSVKGRFTVTRDNAKNMVYLQMNSLKPEDSAVYTCAASLRGWDTTRIDYEYWGQGTQVTVSS
notes: tested as periplasmic extract; also called DLLBII102F8; not shown: C-terminal c-myc tag and His6 tag

binding [1]: binds
binding [4]: binds
B19: DLLBII96C03 (VHH)
VHH: EVQLVESGGGLVQPGGSLRLSCAASGFTFGNYDMSWVRQAPGKGPEWVSAINSGGGDTYYADSVKGRFTISRDNAKNTLYLQMNSLKPEDTAVYYCATPRGWGPTGPHEYGYWGQGTQVTVSS
notes: also called DLLBII96C3; DLLBII96CO3; not shown: C-terminal c-myc tag and His6 tag

binding [3]: binds
B20: DLLBII112E07 (VHH)
VHH: EVQLVESGGGLVQAGGSLRLSCAASGRTVRSYATGWFRQAPGKEREFVAALRWSIGSIASVYYDDSVKGRFTISGDNAENTVYLQMNALKPEDTAIYYCASTTRGRYSALSASAYDYWGQGTQVTVSS
notes: tested as periplasmic extract; also called DLLBII112E7; not shown: C-terminal c-myc tag and His6 tag

binding [3]: binds
B21: DLLBII58A11 (VHH)
VHH: EVQLVESGGGLVQAGGSLRLSCTTSERTVSRYSMGWFRQAPGKEREAVATISWSGDSTYYADSVKGRFTISRDNTKNTLYLQIDSLKPEDTAVYYCVAKPNLKYGSYWPPRGYDYWGQGTQVTVSS
notes: tested as periplasmic extract; not shown: C-terminal c-myc tag and His6 tag

binding [3]: binds
B23: DLLBII101F01 (VHH)
VHH: EVQLVESGGGLVQAGGSLRLSCAASGRTFSNYAMGWFRQAPGKEREFVAAISWSGGDTYYADSVKGRFTISRDNAKNTVCLQMNSLKPEDTAVYYCAASFQSGAAPGANFYDYWGQGTQVTVSS
notes: tested as periplasmic extract; also called DLLBII101F1; not shown: C-terminal c-myc tag and His6 tag

binding [3]: binds
B24: DLLBII107C03 (VHH)
VHH: EVQLVESGGGLVQPGGSLRLSCEVSGSIGSVSDMRWYRQAPGLQYELVARITSGSITDYSDSVKGRFTISRDNAKNTVYLQMNSLKPEDTAVYYCNADVQHSAWLKPLTYWGQGTQVTVSS
notes: tested as periplasmic extract; also called DLLBII107C3; not shown: C-terminal c-myc tag and His6 tag

The remaining lines, values behind:

B1: DLLBII5B11 (VHH)
VHH: EVQLVESGGGLVQPGGSLRLSCAISGFTLDLHVIGWLRQAPGKEREWVSCISSSDGSTYYADSVKGRFTISRDNAKNTVYLQMNSLKPEDTAVYYCAAPWDSWYCGIGNDYDYWGQGTQVTVSS
notes: also called DLLBII05B11; not shown: C-terminal c-myc tag and His6 tag
binding [1]: binds
binding [2]: binds

B2: DLLBII8A09 (VHH)
VHH: EVQLVESGGGLVQPGGSLRLSCAASGFTLDYYNIGWFRQAPGKEREWVSCINSSDGSTYYADSVKGRFTISRDNAKNTVYLQMNSLKPEDTAVYYCAAPFAYYSNLCGVNGYDYWGQGTQVTVSS
notes: also called DLLBII08A09; not shown: C-terminal c-myc tag and His6 tag
binding [1]: binds
binding [2]: binds

B7: DLLBII07A02 (VHH, not shown: small tags and cut ends)
VHH: EVQLVESGGGLVQAGGSLRLSCAASGSTFNSYAMGWYRQAPGKQREWVAAFSTGGSTNYADSVKGRFTISRDNAKNTVYLQMNSLKPEDTAVYYCFYSGSYYYPTDVFEYDYWGQGTQVTVSS
binding [1]: binds
binding [2]: binds

B8: DLLBII17F10 (VHH)
VHH: EVQLVESGGGLVQAGGSLRLSCASSGRTLLNYAMGWFRQAPGKEREFVSGINWSGGSTYYADSVKGRFTISRDNAENTVYLHMNSLKPEDTAVYYCAAAHDNYWFTDDSLGRGLKYWGQGTQVTVSS
notes: as for B4
binding [1]: binds

B10: DLLBII8C11 (VHH)
VHH: EVQLVESGGGLVQAGGSLRLSCAASGFTFDDYAIGWFRQAPGKEREGVSCISSHDRTTYYADSVKGRFTISSDNAKNTVYLQMNSLKPEDTAVYYCAADPLVCGYNDPRLADYWGQGTQVTVSS
notes: also called DLLBII08C11; not shown: C-terminal c-myc tag and His6 tag
binding [1]: binds
binding [2]: binds

B11: DLLBII7B05 (VHH)
VHH: EVQLVESGGGLVQAGGSLRLSCAASGFALDYYAVGWFRQAPGKEREGVSCISSRGGSTFYADSVKGRFTTSRNNAKNTVYLQMNSLKPEDTAVYYCAAHPLQNCCGGSAYASPEAVYEYWGQGTQVTVSS
notes: also called DLLBII07B05; DLLBII7B5; not shown: C-terminal c-myc tag and His6 tag
binding [1]: binds
binding [2]: binds

B12: DLLBII55D12 (VHH, not shown: small tags and cut ends)
VHH: B13 VHH with E47G
binding [1]: binds
binding [2]: binds
binding [4]: binds

B15: DLLBII56C04 (VHH, not shown: small tags and cut ends)
VHH: B13 VHH with A23T, D31V, E47G, G56S, I70T, N74S, T110W
binding [1]: binds
binding [2]: binds
binding [4]: binds

B16: DLLBII56A09 (VHH, not shown: small tags and cut ends)
VHH: B13 VHH with E47G, I70T
binding [1]: binds
binding [2]: binds
binding [4]: binds

B22: DLLBII19F04 (VHH)
VHH: EVQLVESGGGLVQAEGSLRLSCAASGSTFSTYAMAWYRQAPGKQRELVAGISFDGSTHYAESVKGRFTISRDDAKNTVSLQMNSLKPEDAAVYYCYSVHPSTGFGSWGQGTQVTVSS
notes: also called DLLBII19F4; not shown: C-terminal c-myc tag and His6 tag
binding [1]: binds
binding [2]: binds

From US20110195494A1 (Boehringer Ingelheim, published 2011)
